Data taken from the supplement of paper PMC10735217.
Counter-ions that a name gives are not always drawn. This is one part of the list. Repeats in this data set agree poorly, so a single value says little.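 Human kidney-derived cells stably carry a construct in which eight TEAD-binding elements drive luciferase, measured by luminescence in a drug-repurposing library screen. A hit is any compound whose signal exceeds the plate mean by more than five robust Z scores.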

System: HEK293A TEAD-LUC reporter
Assay: TEAD-luciferase reporter activity (YAP activation), robust Z score vs plate; higher = stronger YAP/TEAD activation
Conditions: 24 h

SMILES | TEAD-luciferase reporter activity (compound concentration: 200 nM) | TEAD-luciferase reporter activity (compound concentration: 2 uM) | TEAD-luciferase reporter activity (compound concentration: 10 uM)
COc1ccc2c(c1)[C@@H]1C[C@]1(C(=O)N1C3CCC1CN(C)C3)Cn1c-2c(C2CCCCC2)c2ccc(C(=O)NS(=O)(=O)N(C)C)cc21 [Beclabuvir] | inactive: -0.637 | inactive: 1.11 | active: 5.01
C[n+]1cccc(C(N)=O)c1 | inactive: -0.729 | inactive: -0.142 | inactive: 0.0463
NS(=O)(=O)C#Cc1ccccc1 [Pifithrin-mu] | inactive: -2.4 | inactive: 0.219 | inactive: -0.0814
COCCOc1cc(Cn2c(C(=O)O)c(-c3ccc(C(C)(C)C)cc3)c3ccccc32)cc(OCCOC)c1 | inactive: -1.46 | inactive: 1.04 | inactive: 1.72
CC(C)(C)c1nnc(-c2nn(-c3ccccc3Cl)c(-c3ccc(Br)cc3)c2Cn2cncn2)s1 | inactive: 0.674 | inactive: 1.9 | inactive: 1.61
COC(CNCC(C)C)COc1c(C)csc1C(=O)CCc1ccccc1 (stereo not given) | inactive: -0.344 | inactive: 1.98 | inactive: -0.0895
CC(=O)NCCC(=O)N1Cc2ccccc2CC2(CCCN2CC2CCCCC2)C1 (stereo not given) | inactive: -0.936 | – | inactive: 2.93
CCCCCCCCCCCCCC(=O)[O][Pt-2]1([O]C(=O)CCCCCCCCCCCCC)[NH2+][C@@H]2CCCC[C@H]2[NH2+]1 [Miriplatin hydrate] | inactive: -2.37 | inactive: 3.41 | inactive: 2.05
CCn1cc(C(=O)O)c(=O)c2cc(F)c(N3CCNC(C)C3)c(F)c21 (stereo not given) [lomefloxacin] | inactive: -0.731 | inactive: 0.201 | inactive: 2.23
N#Cc1ccc2c(c1)[C@H]1CN(CCCCNC(=O)c3ccc(-c4ccccc4)cc3)C[C@@H]1CO2 | inactive: -0.962 | inactive: 0.698 | inactive: -1.16
CCOP(=O)(COc1cc(C)c(Cc2ccc(O)c(C(C)C)c2)c(C)c1)OCC | inactive: 0.985 | inactive: -0.373 | inactive: -0.88
CC1(C)CC(=O)N(CCCCN2CCN(c3ncccn3)CC2)C(=O)C1 [Gepirone hydrochloride] | inactive: -2.45 | inactive: -0.23 | inactive: 1.57
CC(C)CCN(C[C@@H](O)[C@H](Cc1ccccc1)NC(=O)C(C)C(C)(C)C(N)=O)C(=O)NC(C)(C)C (stereo not given in full) | inactive: -1.03 | inactive: 0.57 | inactive: 0.114
O=C(O)CN1C(=O)[C@@H](NC(CCCCC2CCNCC2)C(=O)O)CSc2ccccc21 (stereo not given in full) | inactive: -0.801 | inactive: -0.469 | inactive: 0.406
O=C(O)c1cc(=O)[nH]c(=O)[nH]1 [Orotic acid] | inactive: -0.395 | inactive: -1.77 | inactive: 0.766
Cc1nc(NCC2CC2)c(C)c(Nc2c(Cl)cc(C)c3nccnc23)n1 | inactive: -0.886 | inactive: 0.584 | inactive: 1.78
CC(SC(=O)c1cccs1)C(=O)NCC(=O)O (stereo not given) [stepronin] | inactive: -0.944 | inactive: -1.48 | inactive: 2.48

SMILES | TEAD-luciferase reporter activity (compound concentration: 200 nM) | TEAD-luciferase reporter activity (compound concentration: 2 uM) | TEAD-luciferase reporter activity (compound concentration: 10 uM)
COC(=O)[C@H](C/C=C/c1ccc(N(C)c2ncccn2)cc1)NC(=O)c1ccccc1 | inactive: 0.0179 | inactive: -0.495 | inactive: 0.0344
CC(=O)NC[C@H]1CN(c2ccc(-c3ccc(CNCc4cnn[nH]4)cc3)c(F)c2)C(=O)O1 [radezolid] | inactive: -0.509 | inactive: 0.225 | inactive: -0.118
O=S(=O)(c1cccc2cnccc12)N1CCCNCC1 [fasudil ER] | inactive: 3.46 | inactive: 0.723 | inactive: 0.167
CCCCCCCCCCCCOC(=O)CCSCCC(=O)OCCCCCCCCCCCC | inactive: -1.69 | inactive: -0.568 | inactive: 0.333
CCCCC/C=C\C/C=C\CCCCCCCc1ccco1 | inactive: 0.512 | inactive: -0.394 | inactive: 1.22
COc1cc2c(cc1Cc1cccc(Cl)c1F)c(=O)c(C(=O)O)cn2[C@H](CO)C(C)C [Elvitegravir] | inactive: 0.0856 | inactive: -0.441 | inactive: 0.871
CN1CCN(c2ccc(C(=O)Nc3n[nH]c4ccc(Cc5cc(F)cc(F)c5)cc34)c(NC3CCOCC3)c2)CC1 [Entrectinib] | inactive: 1.02 | inactive: -1.67 | inactive: -2.11
CC(C)(C)c1csc(-c2cc3cc(OCc4ccccc4CC(=O)O)ccc3o2)n1 | inactive: 0.977 | inactive: 2.35 | inactive: -0.245
COc1c(C)cnc(Cn2cc(C#CCCO)c3c(Cl)nc(N)nc32)c1C | inactive: -0.458 | – | inactive: -1.44
NS(=O)(=O)c1cc2c(cc1Cl)N=CNS2(=O)=O [Chlorothiazide] | inactive: -2.23 | inactive: -1.3 | inactive: 1.76
COc1ccc(-n2nc(C(N)=O)c3c2C(=O)N(c2ccc(N4CCCCC4=O)cc2)CC3)cc1 [Apixaban] | inactive: 0.342 | inactive: -1.39 | inactive: 0.214
COc1ccc(/C=C/c2ccc3c(=O)n(CCCN(C)C)ncc3c2)cc1 | inactive: -0.169 | inactive: 0.249 | inactive: 1.93
NCCOC[C@H](N)C(=O)O | inactive: 1.66 | inactive: -1.56 | inactive: -1.06
CCOC(=O)c1cnc2c(cnn2CC)c1NN=C(C)C [Etazolate] | inactive: 1.78 | inactive: 0.502 | inactive: -0.55
Cc1nc2c(C)cccn2c(=O)c1CCN1CCC(c2noc3cc(F)ccc23)CC1 [Ocaperidone] | inactive: -0.598 | inactive: -0.88 | inactive: 2.66
CCCCOc1ccc(C(=O)OCCN(CC)CC)cc1 | inactive: 1.43 | inactive: 0.524 | inactive: 1.75
CC[C@@H]1NC(=O)[C@H](CCCCN)NC(=O)[C@@H](Cc2c[nH]c3ccccc23)NC(=O)[C@H](Cc2ccc(O)cc2)NC(=O)[C@@H](NC(=O)[C@@H](Cc2ccccc2)NC(=O)CN2CCN(CCO)CC2)CSSC[C@@H](C(=O)N[C@H](C(N)=O)[C@@H](C)O)NC1=O | inactive: 0.195 | inactive: 0.911 | inactive: -0.248

Shown as tab-separated lines: part of the list above
SMILES	TEAD-luciferase reporter activity (compound concentration: 200 nM)	TEAD-luciferase reporter activity (compound concentration: 2 uM)	TEAD-luciferase reporter activity (compound concentration: 10 uM)
O=S(=O)(c1cccc2cnccc12)N1CCCNCC1 [fasudil ER]	inactive: 3.46	inactive: 0.723	inactive: 0.167
COc1c(C)cnc(Cn2cc(C#CCCO)c3c(Cl)nc(N)nc32)c1C	inactive: -0.458	–	inactive: -1.44
COc1ccc(/C=C/c2ccc3c(=O)n(CCCN(C)C)ncc3c2)cc1	inactive: -0.169	inactive: 0.249	inactive: 1.93
